Results are given in words; binding and its absence hold for the method and conditions named. In cells and extracts the contact can be indirect. These calls come from enrichment with a bait or labelling near it, and not all partners need be listed. For some assays here: Where a sequence is shown, tags or fusion partners need not be part of it.
B1: Eukaryotic translation initiation factor 4G3 (protein, UniProt A4HX58 1-635)
chain: MQFTVEQIRSVRNNYLEPPYPGFSLDEVVRRRRLTQTKLVRGENAWVAKGTAQTTEEWVQRLLHGTLNKLTEENKDIMIDKLLTKELFATEDIMNMVVNIIFKKALDEPENSKLYAGVCHSLALYEANVLRDGHKGERPQSQLRDAIISTVQHEFRTLSKELSKMEDKSEEELEYERSNVMRRKRSNMRFIGELYLCTALTHSTMFTVMDLTMRCSDKTGFPSSENIELLAALLNTIGDRLDQNHKKTLDRYFTSLENFNKKPDCPYPPRIRFKIMDLLDLRKRGWGSKPKPVKAALPPSHGKDKKCATAPPPKKGGRDQGSAAAASKSWRDAATMKTGTAAAPASSTGKGLNGRGTSSASPAANTTALSTSAAVTVAATAPAGASFRDEASPQVPLVKFELRVASMFQEWVADRTNDVILHWVDQFNTCDRFFESESELCVAVAQEVIHSACTTTRKDAQREAFSFLVVGLYMIDTEVFDGFASALASAIEDGLLEDVPKFGERFMSMLRLTSTEQETRADVYFDAANVLRLTYNRLESPDDSAVDTLMSFWDRVPLPSTDEENMIRMDLDVVYSLCNPEGAQDGLEKLLSRIIHSMLQMQLMDAEVLDEFLCLDVQEGVCAKVIADYKERFPK
B2: Poly(A)-binding protein 2 (protein, UniProt A4IBV3 1-585)
chain: MAFTGPNPSIWVGGLDPDLQEQKLYDYFVRIGPVTSVRVCVDSATQKSLGYGYVNFQDPADAEKALDQAGSKLGSRYLRIAKIQRDPSKRRSGVNNILVKKLPKSVDTYALKEMFSKFGRLTAIGLACDEKGESRGYARISFEREESAVDAVREMDGMEMDGQAIVVERYQAQHRDELLKQFTNLYVKNLDPAVTDEKLRAFFAKYGEVSSAKVRDLGAVQSEAGLGYVAFQKHEDAARAVEELNGKECEISKAGSPLDVSRFRSREERQRDRERQRRERAQQHSKYPNLYVKGFDDTVTSERLEELFQRYGETVSVTVMMDKETGVSRCFGFVSMKDQNAASQAIQELNGSTFLSPRPLFVTYALRKDARRQNLEERSKQFRVRQNPMGGPGMGAMPPIGFMGPQMFNNVNMPFMNPRVPIMPMNGMNGIGGMNGMGGMNGVGGVGGMGGMGGMGGMGGMGGMGGMGGMARPMAPNAMSQMRSRPMPQKPPMQSLMPQQHQQAPPQGQNLAAVLANLNPEQQKNVLGERLYSYIVRSHPSVAAKITGMLLEMDNSEILNMLDSPTMLDSKIAEAQDVLNRHMSV
B3: Poly(A)-binding protein 3 (protein, UniProt A4I150 1-544)
chain: MVVPVQRTSVYVGDLPIDLPRPEEAINNLFSTVAPVVSVKVCRDMATQRSLGYGYVNFQTTADAEKVIDALNYTGIAPGLQIRVMFSIRDPLQRKSGMNNVFVKKLDTAINAKELQAAFTKCGRVLSCKVALDSAGNSKGYGFVQFETAEGAKAALDMNGSKLGDSEVVVAPFVRRVDREVMAAKSFRNIYIKNIAAAATEADVKAAAEKFGKVNSLFLSEHAPFPTKFALVAFEEHEAAVQAIAALNESEESGLTEKAAKLVVCRALSKSERDREKKKAASLYQNHGRNLYVKHLPDDITDDKLREIFEPFGKITSCAIMKEPNGTFKGFAFVCFEDRQHASAALRSLNGQPLEHSKKPLYVSHAEQKDMRIRLLQQRRAAMRHQSRMVPPMNTFPQQWPRHPFPHMVPPMMPPPPPPNMGMPQFMSGPMIRRPAMEPHLMQGEPMRPPNRYTQPREQYPPQQRQDGVDMNYLSTLSPEQQKNYLGELLYSRILPLESSNAAKITGMLLEMSREEIFEILADHFALLSKIQEANAVLQQHTGN

The chains behind the UniProt entries cited, without tags or fusion partners. Where a name states a change or a piece, a line headed by the entry shows the natural chain unless it says otherwise.
UniProt E9AHW1: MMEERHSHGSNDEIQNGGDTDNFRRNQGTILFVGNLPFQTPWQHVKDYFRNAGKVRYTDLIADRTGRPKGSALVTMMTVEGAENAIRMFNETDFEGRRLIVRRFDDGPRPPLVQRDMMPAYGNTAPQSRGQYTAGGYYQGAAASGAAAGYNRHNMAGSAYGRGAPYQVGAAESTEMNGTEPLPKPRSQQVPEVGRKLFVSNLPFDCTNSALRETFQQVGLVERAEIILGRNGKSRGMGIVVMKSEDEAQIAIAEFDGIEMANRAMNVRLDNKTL
UniProt A4HXC9: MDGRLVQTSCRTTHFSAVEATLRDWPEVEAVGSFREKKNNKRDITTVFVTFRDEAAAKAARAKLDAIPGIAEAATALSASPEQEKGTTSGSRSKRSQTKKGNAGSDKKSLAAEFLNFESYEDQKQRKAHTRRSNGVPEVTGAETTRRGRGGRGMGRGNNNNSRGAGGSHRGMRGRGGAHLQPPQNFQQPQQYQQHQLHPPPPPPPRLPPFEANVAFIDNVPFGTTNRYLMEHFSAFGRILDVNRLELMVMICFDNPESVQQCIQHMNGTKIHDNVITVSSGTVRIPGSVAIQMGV
UniProt A4I2T3: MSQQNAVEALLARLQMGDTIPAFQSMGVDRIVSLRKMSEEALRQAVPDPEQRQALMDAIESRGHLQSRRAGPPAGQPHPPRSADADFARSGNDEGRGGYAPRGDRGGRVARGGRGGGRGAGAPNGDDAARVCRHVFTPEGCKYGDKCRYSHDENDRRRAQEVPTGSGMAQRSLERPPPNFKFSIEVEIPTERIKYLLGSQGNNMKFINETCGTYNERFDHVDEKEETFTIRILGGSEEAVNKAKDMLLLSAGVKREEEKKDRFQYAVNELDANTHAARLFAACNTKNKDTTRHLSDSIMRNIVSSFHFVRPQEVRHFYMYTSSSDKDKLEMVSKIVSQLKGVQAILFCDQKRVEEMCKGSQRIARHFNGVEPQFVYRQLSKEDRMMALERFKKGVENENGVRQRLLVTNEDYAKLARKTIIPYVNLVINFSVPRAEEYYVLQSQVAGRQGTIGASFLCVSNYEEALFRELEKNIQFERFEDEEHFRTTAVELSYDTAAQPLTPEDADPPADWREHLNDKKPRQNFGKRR

How the values were obtained:
[1] = molecular target: HA-tagged L. infantum DRBD2 (L. infantum) (UniProt E9AHW1); experiment: affinity purification with mass spectrometry; anti-HA magnetic beads, HA-tagged RBP23 or DRBD2 from L. infantum cytoplasmic extracts (nitrogen cavitation), 1 h at 4 C, washed with PBS, not RNase treated; control: extracts of non-transfected cells; two independent experiments
[2] = molecular target: HA-tagged L. infantum RBP23 (L. infantum) (UniProt A4HXC9); experiment: as above
[3] = molecular target: T1, HA-tagged L. infantum PABP2 (L. infantum) (UniProt A4IBV3); experiment: affinity purification with mass spectrometry; pilot analysis: anti-HA IPs of HA-tagged PABP1, PABP2 or PABP3 from L. infantum cytoplasmic extracts (lysis with glass beads), not RNase treated; two independent experiments
T1 sequence: B2 chain

[4] = molecular target: T2, HA-tagged L. infantum PABP3 (L. infantum) (UniProt A4I150); experiment: as above
T2 sequence: B3 chain

[5] = molecular target: T3, HA-tagged L. infantum PABP1 (L. infantum) (UniProt A4IC57); experiment: as above
T3 sequence: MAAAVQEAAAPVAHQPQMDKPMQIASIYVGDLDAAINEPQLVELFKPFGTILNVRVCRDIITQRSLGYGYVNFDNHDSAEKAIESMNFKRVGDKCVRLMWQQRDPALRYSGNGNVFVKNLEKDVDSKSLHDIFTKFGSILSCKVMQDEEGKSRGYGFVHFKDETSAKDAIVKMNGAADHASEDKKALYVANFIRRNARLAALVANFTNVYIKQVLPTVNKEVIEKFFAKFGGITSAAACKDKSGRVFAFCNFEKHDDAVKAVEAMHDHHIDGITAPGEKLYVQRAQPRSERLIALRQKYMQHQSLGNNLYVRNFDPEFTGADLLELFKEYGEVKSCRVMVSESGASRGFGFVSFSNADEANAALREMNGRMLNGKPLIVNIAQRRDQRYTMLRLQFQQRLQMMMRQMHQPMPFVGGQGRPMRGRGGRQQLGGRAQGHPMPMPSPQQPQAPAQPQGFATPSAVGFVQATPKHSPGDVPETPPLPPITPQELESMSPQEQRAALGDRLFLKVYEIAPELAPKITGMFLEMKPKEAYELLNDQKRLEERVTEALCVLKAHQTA

| Molecule | binding [1] | binding [2] | binding [3] | binding [4] | binding [5] |
| --- | --- | --- | --- | --- | --- |
| CCCH-Zinc finger 41 (from UniProt A4I2T3) | binds | binds | binds | binds | binds |
| DRBD2 (dsRNA-binding domain 2) (from UniProt E9AHW1) |  |  | binds |  |  |
| RNA-binding protein 23 (from UniProt A4HXC9) | binds |  |  |  | binds |
| B1 | binds | binds |  |  |  |
| B2 | binds | binds |  |  |  |
| B3 | binds | binds |  |  |  |
